Results are given in words; binding and its absence hold for the method and conditions named. In cells and extracts the contact can be indirect. Some binding calls cover weakened binding; strength is not graded here. Sequences can lack the tags named with a protein.
Target: wild type human APOBEC3G carrying a C-terminal Myc epitope tag (human), Q9HC16
Experiment: co-IP; HeLa cells co-transfected with 2.5 ug each of untagged and C-terminally Myc-tagged A3G vectors; lysis in 0.5% Triton X-100, 287 mM NaCl, 2.68 mM KCl, 1.47 mM KH2PO4, Na2HPO4, pH 7.2; immunoprecipitation with Myc-specific monoclonal antibody 9E10; blot with A3G-specific Apo-C17
Details: remark: other sources report otherwise

- binding: binds
B1: untagged human APOBEC3G wild type, Q9HC16 1-384 (protein)
chain: MKPHFRNTVERMYRDTFSYNFYNRPILSRRNTVWLCYEVKTKGPSRPPLDAKIFRGQVYSELKYHPEMRFFHWFSKWRKLHRDQEYEVTWYISWSPCTKCTRDMATFLAEDPKVTLTIFVARLYYFWDPDYQEALRSLCQKRDGPRATMKIMNYDEFQHCWSKFVYSQRELFEPWNNLPKYYILLHIMLGEILRHSMDPPTFTFNFNNEPWVRGRHETYLCYEVERMHNDTWVLLNQRRGFLCNQAPHKHGFLEGRHAELCFLDVIPFWKLDLDQDYRVTCFTSWSPCFSCAQEMAKFISKNKHVSLCIFTARIYDDQGRCQEGLRTLAEAGAKISIMTYSEFKHCWDTFVDHQGCPFQPWDGLDEHSQDLSGRLRAILQNQEN

From PMC2776001
